Measurements reported in PubChem BioAssay AID1508588 (Peter MacCallum Cancer Centre, 2020).
The deposit covers about 18,000 reagents; below is a random part of them. 790 of them (4.4%) were called active. 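Calls rest on a combination of fold-change classes in drug and vehicle arms, not all shown here.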

Screen: 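Knock-downs boosting vemurafenib effects on melanoma cell growth or lactate release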 (primary screen)
System: human WM266.4 melanoma cells (BRAF V600 mutant)
Knock-down reagent: siRNA pool against human genes, 40 nM
Timing: 96 h from transfection to read-out
Conditions: vemurafenib 300 nM (about IC25), added 48 h after transfection, for 48 h; comparison arm got DMSO vehicle only
Measurement: 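Cell gain (DAPI nuclei at end minus before drug, mean of two replicates) and medium lactate by absorbance per cell, both as ratio to non-targeting siRNA, also grouped into fold-change classes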
Reading the numbers: cell gain with vemurafenib: higher = more cell gain than with non-targeting siRNA; lactate per cell with vemurafenib: higher = more lactate made per cell
Rule for the call: 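a knock-down counts as enhancing when its fold-change classes with vehicle and with vemurafenib, taken together, show a stronger drug effect on cell gain or lactate per cell; exact class pairs not stated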
Calls: active = enhances vemurafenib effect; inactive = no enhancement seen

no.	gene	cell gain with vemurafenib	lactate per cell with vemurafenib	activity call
1	ABO	0.8	0.86	inactive
2	AMBP	0.21	1.43	inactive
3	IFT25	0.53	1.06	inactive
4	BIN1	-0.09	2.4	inactive
5	CSMD1	0.42	0.72	inactive
6	COX10	0.44	1.39	inactive
7	AKR1C2	0.67	1.19	inactive
8	HAUS2	0.04	0.56	active
9	RPS6KA4	0.11	0.93	inactive
10	PLGRKT	1.17	0.38	inactive
11	BAG3	0.27	0.38	inactive
12	KANK2	0.24	2.1	inactive
13	CDO1	0.87	1.08	inactive
14	OR52M1	0.48	1.34	inactive
15	LY6D	0.86	0.8	inactive
16	ASAH2	0.42	1.84	inactive
17	LRRC52	0.67	0.95	inactive
18	ZNF79	0.47	0.9	inactive
19	PLEKHA4	0.38	1.19	inactive
20	SULT1A4	0.54	1.52	inactive
21	C9orf85	0.3	1.52	inactive
22	SOX17	1.05	0.87	inactive
23	CRB2	0.46	1.93	inactive
24	NRIP1	0.89	0.86	inactive
25	ATOSB	0.36	1.4	inactive
26	TIRAP	0.92	0.62	inactive
27	POGLUT2	0.19	1.9	active
28	CREB3L2	-0.08	1.88	inactive
29	EME2	0	0	inactive
30	IGSF3	0.72	1.15	inactive
31	CD274	-0.09	1.26	inactive
32	SNRPG	0.03	0.73	inactive
33	OR2T34	0.05	2.7	inactive
34	MAJIN	0.92	0.55	inactive
35	CCDC112	0.57	1.47	inactive
36	DUSP9	1.08	0.73	inactive
37	PIK3C2B	0.29	0.78	inactive
38	CYP2F1	1.04	0.84	inactive
39	MRGPRX4	0.37	1.41	inactive
40	DCXR	0.89	0.8	inactive
41	TMEM120A	0.49	1.25	inactive
42	ZNF229	0.09	0.32	inactive
43	FABP3	1.15	0.76	inactive
44	CLEC4M	0.79	0.82	inactive
45	SLC39A10	0.35	1.08	inactive
46	MTARC1	0.63	0.95	inactive
47	FOXP3	0.24	1.75	inactive
48	VAPA	0.67	0.68	inactive
49	ZDHHC18	0.39	0.95	inactive
50	FSHB	1.04	0.64	inactive
51	CDC25B	0.41	1.5	inactive
52	CHDH	0.88	0.7	inactive
53	IQCE	1.28	0.4	inactive
54	TRAK2	0.38	1.12	inactive
55	MAP1LC3B	0.2	1.35	inactive
56	TNFRSF6B	0.47	0.76	inactive
57	RBBP8	0.16	1.54	inactive
58	DOP1A	0.44	0.68	inactive
59	ABCA10	0.82	0.67	inactive
60	B4GALT7	0.64	1.06	inactive
61	CSF3	0.63	1.02	inactive
62	TCTA	0.77	0.96	inactive
63	SLC17A9	0.2	0.36	inactive
64	ILF2	0.28	0.34	inactive
65	OR13F1	0.83	2.14	inactive
66	LRCH2	0.55	0.29	active
67	FOXC1	0.69	1.11	inactive
68	TANGO2	0.61	0.19	active

Next part; the last 12 above are carried over.
no.	gene	cell gain with vemurafenib	lactate per cell with vemurafenib	activity call
57	RBBP8	0.16	1.54	inactive
58	DOP1A	0.44	0.68	inactive
59	ABCA10	0.82	0.67	inactive
60	B4GALT7	0.64	1.06	inactive
61	CSF3	0.63	1.02	inactive
62	TCTA	0.77	0.96	inactive
63	SLC17A9	0.2	0.36	inactive
64	ILF2	0.28	0.34	inactive
65	OR13F1	0.83	2.14	inactive
66	LRCH2	0.55	0.29	active
67	FOXC1	0.69	1.11	inactive
68	TANGO2	0.61	0.19	active
69	SPPL3	0.77	0.91	inactive
70	CSNK2B	0.26	0.83	inactive
71	DDX28	0.98	0.83	inactive
72	IRX2-DT	0.6	0.84	inactive
73	THAP12	0.17	2.8	inactive
74	CDK13	0.68	1.34	inactive
75	BACH1	0.22	2.77	inactive
76	CCDC149	0.37	1.6	inactive
77	TPR	0.8	0.45	active
78	HYLS1	0.41	0.82	inactive
79	CSTF2T	0.28	1.96	inactive
80	INHBE	0.23	0.6	inactive
81	RPS6KA6	0.64	1.23	inactive
82	DLK1	0.36	1.01	inactive
83	CASP8AP2	-0.02	1.69	inactive
84	E2F1	0.49	1.09	inactive
85	CCDC110	0.45	1.6	inactive
86	NCAPG	0.82	0.81	inactive
87	ZNF215	0.82	0.69	inactive
88	ZNF224	0.49	1.41	inactive
89	RFX2	0.83	0.84	inactive
90	ETV3	0.52	1.18	inactive
91	SPINK4	-0.09	1.28	inactive
92	VANGL2	1.14	0.92	inactive
93	SLC6A5	0.43	0.83	inactive
94	APOC4	0.62	1.58	inactive
95	LEO1	0.65	0.98	inactive
96	ACKR4	0.57	0.52	inactive
97	SNAI1	0.67	1.56	inactive
98	SLITRK5	0.63	0.6	inactive
99	BFAR	0.06	2.87	inactive
100	SYT14	0.97	0.93	inactive
101	FNDC5	0.14	2.01	inactive
102	MCM3	0.04	1	inactive
103	BPY2C	0.77	0.51	inactive
104	SEMA7A	0.91	0.8	inactive
105	DNAJC1	0.45	0.92	inactive
106	LKAAEAR1	0.24	1.38	inactive
107	IRS2	0.36	1.04	inactive
